These are yes or no findings as the source states them, for the method shown. Some results given as binding are weak or reduced against the parent protein; the word gives no strength.
Tests used:
[1] = target: T1, tetraspanin CD63 on exosomes in mouse bronchoalveolar lavage fluid (mouse) (UniProt P41731); assay: dynamic light scattering of mouse BALF exosomes mixed with nanoplatform, 298K
T1 sequence (looked up): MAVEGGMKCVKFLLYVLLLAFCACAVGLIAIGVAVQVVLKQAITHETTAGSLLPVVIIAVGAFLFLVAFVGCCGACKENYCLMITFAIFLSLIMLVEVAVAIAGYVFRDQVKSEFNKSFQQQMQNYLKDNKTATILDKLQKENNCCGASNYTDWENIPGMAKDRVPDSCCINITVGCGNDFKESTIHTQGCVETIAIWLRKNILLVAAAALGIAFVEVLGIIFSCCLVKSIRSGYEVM

[2] = target: T1, tetraspanin CD63 on exosomes in mouse bronchoalveolar lavage fluid (mouse); assay: electrical impedance spectroscopy, Bode phase plot
[3] = target: T1, tetraspanin CD63 on exosomes in mouse bronchoalveolar lavage fluid (mouse); assay: dynamic light scattering, hydrodynamic diameter vs. time
[4] = target: T2, tetraspanin CD9 on exosomes in mouse bronchoalveolar lavage fluid (mouse) (UniProt P40240); assay: dynamic light scattering of mouse BALF exosomes mixed with nanoplatform, 298K
T2 sequence (looked up): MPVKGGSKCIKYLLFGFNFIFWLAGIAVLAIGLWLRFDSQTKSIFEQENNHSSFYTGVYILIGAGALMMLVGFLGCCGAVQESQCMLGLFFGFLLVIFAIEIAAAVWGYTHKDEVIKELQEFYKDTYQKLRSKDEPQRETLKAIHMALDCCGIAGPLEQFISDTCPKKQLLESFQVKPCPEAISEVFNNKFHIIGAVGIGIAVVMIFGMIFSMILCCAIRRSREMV

[5] = target: T2, tetraspanin CD9 on exosomes in mouse bronchoalveolar lavage fluid (mouse); assay: electrical impedance spectroscopy, Bode phase plot
[6] = target: T2, tetraspanin CD9 on exosomes in mouse bronchoalveolar lavage fluid (mouse); assay: dynamic light scattering, hydrodynamic diameter vs. time

Measured: binding

B1: Fe/Fe3O4-nanoplatform bearing peptide aptamers for binding of the tetraspanin CD63 (…, SEQ ID NO:35) (peptide)
peptide: LNNHTASILNRMQANF
modifications: attached to Fe/Fe3O4 nanoparticle (75+/-5 peptide aptamers per nanoplatform)
binds: [1] | [2] | [3]

B2: Fe/Fe3O4-nanoplatform bearing peptide aptamers for binding of the tetraspanin CD9 (…, SEQ ID NO:34) (peptide)
peptide: VQEFYKDTYNKLKTK
modifications: attached to Fe/Fe3O4 nanoparticle (75+/-5 peptide aptamers per nanoplatform)
binds: [4] | [5] | [6]

Reference: patent publication US20200300849A1
